{"source": "patent US5639904A", "about": "“1-aryloxy-3-alkylamino-2-propanol nitrate esters, the use thereof and corresponding pharmaceutical composition” (Prodesfarma, S.A., priority 1993, dated 1997)", "key": {"[1]": {"tested_on": "helical strips of swine coronary artery (calcium-induced contraction)", "assay": "In vitro coronary vasodilator activity: antagonism of contractions induced by calcium (1.5 mM)", "assay_type": "cell-based", "conditions": "Sus scrofa, read-out: inhibitory concentration 50 (IC50), effect on Ca2+-induced contractions in swine coronary artery", "description": "(§1) The coronary vasodilator activity of the synthesized products was determined in vitro from their capacity to antagonize the contractions induced by a) potassium (35 mM) b) calcium (1.5 mM) and c) serotonin (1 mM) in helical strips of swine coronary artery, using Nitroglycerine and Nicorandil as reference drugs (Table 1).\n(§2) IN VITRO CORONARY VASODILATING ACTIVITY\n(§3) Activity expressed as inhibitory concentration 50 (IC50) en μM\n(§4) Effect on concentrations in swine coronary artery"}, "[2]": {"tested_on": "helical strips of swine coronary artery (potassium-induced contraction)", "assay": "In vitro coronary vasodilator activity: antagonism of contractions induced by potassium (35 mM)", "assay_type": "cell-based", "conditions": "Sus scrofa, read-out: inhibitory concentration 50 (IC50), effect on K+-induced contractions in swine coronary artery", "description": "as §1, §2, §3, §4"}}, "data": [{"compound": "CC(C)NCC(O)COc1cccc2ccccc12", "note": "(centres unmarked) [Propranolol, reference compound]", "values": [{"measurement": "IC50", "setting": "[1]", "value": 72.4, "unit": "µM"}, {"measurement": "IC50", "setting": "[2]", "value": 98.6, "unit": "µM"}]}]}
